{"source": "the supplement of paper PMC4604168 (melanoma cell lines)", "note": "The other results are listed elsewhere or left out. Many values rest on one well or one pass, so single values are uncertain.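 Cells were imaged in 1,536-well plates, and nuclei stained with an antibody against cleaved PARP were counted against all DNA-stained nuclei to give the apoptosis fraction. Screening doses were chosen to leave most cells alive, and resting and induced cleaved-PARP levels differ strongly between cell lines.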", "data": [{"system": "LOXIMVI", "experiment": "cleaved PARP positive nuclei fraction relative to DMSO control; melanoma cells; higher = more apoptosis", "settings": "library dose: low library concentration; 72 h", "units": {"cleaved PARP positive nuclei fraction": "%"}, "values": [{"smiles": "NC1(c2ccc(-c3nc4ccn5c(=O)[nH]nc5c4cc3-c3ccccc3)cc2)CCC1", "note": "+ O=C(Nc1cccc(Cl)c1)Nc1ncc(CCNc2ncnc3ccsc23)s1 [SNS314] (first compound 0.4 µM, partner dose 0.0008 µM)", "cleaved PARP positive nuclei fraction": 224}, {"smiles": "C[C@@H](N)c1ccc(C(=O)Nc2ccnc3[nH]ccc23)cc1", "note": "+ C[C@@H]1CCN(C(=O)CC#N)C[C@@H]1N(C)c1ncnc2[nH]ccc12 [CP690550] (first compound 0.4 µM, partner dose 1 µM)", "cleaved PARP positive nuclei fraction": 43.1}, {"smiles": "CN(c1ncccc1CNc1nc(Nc2ccc3c(c2)CC(=O)N3)ncc1C(F)(F)F)S(C)(=O)=O", "note": "+ NC(=O)Nc1cc(-c2cccc(F)c2)sc1C(=O)N[C@H]1CCCNC1 [AZD7762] (first compound 0.08 µM, partner dose 0.02 µM)", "cleaved PARP positive nuclei fraction": 93.6}, {"smiles": "C[C@@H](N)c1ccc(C(=O)Nc2ccnc3[nH]ccc23)cc1", "note": "+ Cc1cc(N2CCOCC2)cc2[nH]c(-c3c(NC[C@@H](O)c4cccc(Cl)c4)cc[nH]c3=O)nc12 [BMS536924] (first compound 0.4 µM, partner dose 0.2 µM)", "cleaved PARP positive nuclei fraction": 102}, {"smiles": "NC1(c2ccc(-c3nc4ccn5c(=O)[nH]nc5c4cc3-c3ccccc3)cc2)CCC1", "note": "+ CC(C)(C)c1cnc(CSc2cnc(NC(=O)C3CCNCC3)s2)o1 [SNS-032] (first compound 0.4 µM, partner dose 0.01 µM)", "cleaved PARP positive nuclei fraction": 289}, {"smiles": "C[C@]1(O)C[C@@H](c2nc(-c3ccc4ccc(-c5ccccc5)nc4c3)c3c(N)nccn32)C1", "note": "+ NC(=O)Nc1cc(-c2cccc(F)c2)sc1C(=O)N[C@H]1CCCNC1 [AZD7762] (first compound 0.4 µM, partner dose 0.02 µM)", "cleaved PARP positive nuclei fraction": 117}, {"smiles": "CCN(CC)CCNC(=O)c1c(C)[nH]c(/C=C2\\C(=O)Nc3ccc(F)cc32)c1C", "note": "[sunitinib] + C=CCn1c(=O)c2cnc(Nc3ccc(N4CCN(C)CC4)cc3)nc2n1-c1cccc(C(C)(C)O)n1 [MK1775] (first compound 0.4 µM, partner dose 0.02 µM)", "cleaved PARP positive nuclei fraction": 131}, {"smiles": "COc1ccc(C2=N[C@@H](c3ccc(Cl)cc3)[C@@H](c3ccc(Cl)cc3)N2C(=O)N2CCNC(=O)C2)c(OC(C)C)c1", "note": "[Nutlin-3] + CC1(C)NC(=O)N(c2ccc([N+](=O)[O-])c(C(F)(F)F)c2)C1=O [nilutamide] (first compound 0.1 µM, partner dose 1 µM)", "cleaved PARP positive nuclei fraction": 34.8}, {"smiles": "Cn1cnc2c(F)c(Nc3ccc(Br)cc3Cl)c(C(=O)NOCCO)cc21", "note": "[selumetinib] + O=C(CCCCCCC(=O)Nc1ccccc1)NO [vorinostat] (first compound 0.015 µM, partner dose 0.08 µM)", "cleaved PARP positive nuclei fraction": 93.4}, {"smiles": "COc1ccc(C2=N[C@@H](c3ccc(Cl)cc3)[C@@H](c3ccc(Cl)cc3)N2C(=O)N2CCNC(=O)C2)c(OC(C)C)c1", "note": "[Nutlin-3] + Cc1ccc(NC(=O)c2cccc(N(C)C)c2)cc1NC(=O)c1ccc(O)cc1 [ZM336372] (first compound 0.1 µM, partner dose 2 µM)", "cleaved PARP positive nuclei fraction": 62.5}, {"smiles": "CS(=O)(=O)c1ccc(C(=O)Nc2ccc(Cl)c(-c3ccccn3)c2)c(Cl)c1", "note": "[vismodegib] + O=C(O)c1ccc(-c2c[nH]c3ncc(-c4ccccc4)cc23)cc1C1CCCC1 [GSK650394] (first compound 1 µM, partner dose 0.16 µM)", "cleaved PARP positive nuclei fraction": 355}, {"smiles": "C[C@]1(O)C[C@@H](c2nc(-c3ccc4ccc(-c5ccccc5)nc4c3)c3c(N)nccn32)C1", "note": "+ CC(C)(C)c1cnc(CSc2cnc(NC(=O)C3CCNCC3)s2)o1 [SNS-032] (first compound 0.4 µM, partner dose 0.01 µM)", "cleaved PARP positive nuclei fraction": 122}, {"smiles": "CC(=O)O[C@@]12CO[C@@H]1C[C@H](O)[C@@]1(C)C(=O)[C@H](O)C3=C(C)[C@@H](OC(=O)[C@H](O)[C@@H](NC(=O)OC(C)(C)C)c4ccccc4)C[C@@](O)([C@@H](OC(=O)c4ccccc4)[C@H]21)C3(C)C", "note": "[Docetaxel] + COc1cc(Nc2ncc(F)c(Nc3ccc4c(n3)NC(=O)C(C)(C)O4)n2)cc(OC)c1OC [Tamatinib] (first compound 0.0001 µM, partner dose 0.4 µM)", "cleaved PARP positive nuclei fraction": 223}, {"smiles": "CS(=O)(=O)c1ccc(C(=O)Nc2ccc(Cl)c(-c3ccccn3)c2)c(Cl)c1", "note": "[vismodegib] + CO[C@@H]1[C@H](N(C)C(=O)c2ccccc2)C[C@H]2O[C@]1(C)n1c3ccccc3c3c4c(c5c6ccccc6n2c5c31)C(=O)NC4 [Midostaurin] (first compound 1 µM, partner dose 0.08 µM)", "cleaved PARP positive nuclei fraction": 91.1}, {"smiles": "CC(=O)O[C@@]12CO[C@@H]1C[C@H](O)[C@@]1(C)C(=O)[C@H](O)C3=C(C)[C@@H](OC(=O)[C@H](O)[C@@H](NC(=O)OC(C)(C)C)c4ccccc4)C[C@@](O)([C@@H](OC(=O)c4ccccc4)[C@H]21)C3(C)C", "note": "[Docetaxel] + C[C@@H]1CCN(C(=O)CC#N)C[C@@H]1N(C)c1ncnc2[nH]ccc12 [CP690550] (first compound 0.0001 µM, partner dose 1 µM)", "cleaved PARP positive nuclei fraction": 60.5}, {"smiles": "Cn1cnc2c(F)c(Nc3ccc(Br)cc3Cl)c(C(=O)NOCCO)cc21", "note": "[selumetinib] + O=C(Nc1cccc(Cl)c1)Nc1ncc(CCNc2ncnc3ccsc23)s1 [SNS314] (first compound 0.015 µM, partner dose 0.0008 µM)", "cleaved PARP positive nuclei fraction": 28.1}, {"smiles": "NC(=O)c1ccc(N(C(N)=O)c2c(F)cccc2F)nc1-c1ccc(F)cc1F", "note": "+ OCCn1cc(-c2cnc3nnn(Cc4ccc5ncccc5c4)c3n2)cn1 [PF04217903] (first compound 0.4 µM, partner dose 1 µM)", "cleaved PARP positive nuclei fraction": 115}, {"smiles": "CC1(C)CCC(c2ccc(Cl)cc2)=C(CN2CCN(c3ccc(C(=O)NS(=O)(=O)c4ccc(N[C@H](CCN5CCOCC5)CSc5ccccc5)c(S(=O)(=O)C(F)(F)F)c4)cc3)CC2)C1", "note": "+ CO[C@@H]1[C@H](N(C)C(=O)c2ccccc2)C[C@H]2O[C@]1(C)n1c3ccccc3c3c4c(c5c6ccccc6n2c5c31)C(=O)NC4 [Midostaurin] (first compound 0.4 µM, partner dose 0.08 µM)", "cleaved PARP positive nuclei fraction": 126}]}]}
